The other results are listed elsewhere or left out.

This assay concerns the target T1, OsSMF1 (Oryza sativa, UniProt Q6ZLB0 1-436).
T1 sequence: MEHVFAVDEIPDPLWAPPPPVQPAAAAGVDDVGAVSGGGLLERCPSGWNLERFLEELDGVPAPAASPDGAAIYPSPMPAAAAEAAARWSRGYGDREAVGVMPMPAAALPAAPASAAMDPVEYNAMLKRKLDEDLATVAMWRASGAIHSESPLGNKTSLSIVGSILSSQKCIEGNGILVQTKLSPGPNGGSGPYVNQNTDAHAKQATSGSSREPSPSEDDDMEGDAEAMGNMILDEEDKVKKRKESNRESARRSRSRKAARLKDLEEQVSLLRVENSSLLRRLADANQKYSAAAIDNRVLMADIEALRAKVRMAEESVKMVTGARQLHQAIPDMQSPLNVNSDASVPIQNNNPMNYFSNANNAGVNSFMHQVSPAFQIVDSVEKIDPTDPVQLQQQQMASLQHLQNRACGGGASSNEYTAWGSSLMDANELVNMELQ
Nature of the assay: protein-binding microarray (RPBM); PBS, 2% BSA, 51.3 ng/ul salmon testes DNA, 50 uM zinc acetate, 200 nM TF, 25 C, 1 h; high values mean tight binding. Conditions: protein: recombinant; tags: N-terminal polyhistidine and DsRed monomer fusion (pET32a); chain copies: 2; label: CyDye5-dUTP incorporated in the synthesized complementary strand; 3' TTTTT single-stranded linker to array surface; dsDNA, one strand shown. Put shortly:
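For the binding signal, per-feature fluorescence intensity was read in arbitrary units on an Axon 4000B scanner. Before scanning, a 2% BSA-blocked custom Agilent array made double-stranded with Cy5-dUTP was washed after 1 h at 25 °C with 200 nM protein and 50 µM zinc acetate. The proteins were Ni–NTA-purified transcription factors with N-terminal polyhistidine and DsRed fusions, expressed in E. coli BL21-CodonPlus.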
Turning to “TTCAAGTTGAAAACTTCCAACTCACCAATTGATTTTATTCCGGAGTCACCTAGTGCAG”, the binding signal was 3920 fluorescence intensity (a.u.).

For “TATATACTGCACTTCTGCCCTATACACTGTATTTGTATTTCGGAGTCACCTAGTGCAG”, the binding signal is 3810 fluorescence intensity (a.u.).

Turning to “CATGATTAGCCATAAGTGCTACAGTAACCCACATGTGCTACGGAGTCACCTAGTGCAG”, the binding signal was 28300 fluorescence intensity (a.u.).

With “AAATGTAGTTGTAAAATCCACAAAATAGTCTAGTCAGAAGCGGAGTCACCTAGTGCAG”, the binding signal is 3340 fluorescence intensity (a.u.).

For the sequence “AATATGATGGTGCCATTGACGTTGGCGTTGTCACATTCACCGGAGTCACCTAGTGCAG”, the binding signal is 4410 fluorescence intensity (a.u.).

As for “TCGCACGCCAAATTCACACGTGACAGCTACCGTCTTCTCGCGGAGTCACCTAGTGCAG”, the binding signal was 3370 fluorescence intensity (a.u.).

“CAAGATGGGTCGGGTTGGGTGGGGTTACTCGCACTAGCACCGGAGTCACCTAGTGCAG”: the binding signal was 3160 fluorescence intensity (a.u.).

Turning to “AGCTGTTCGGTGGCGGGCGGATCCACCTCGGCCAGCCTCGCGGAGTCACCTAGTGCAG”, the binding signal was 3300 fluorescence intensity (a.u.).

With “AAGAATTAAAGAAGCCTTTATAAGAAGAGAAGGCCAAGCTCGGAGTCACCTAGTGCAG”, the binding signal was 60800 fluorescence intensity (a.u.).

Regarding “GTTCTTCGTCGCCTCCATCCACATCGTCGTCGCCACCACCCGGAGTCACCTAGTGCAG”, the binding signal is 3450 fluorescence intensity (a.u.).

Regarding “ACAATTCAATGACATCTGATGGAGATGTGTTCCATATCAACGGAGTCACCTAGTGCAG”, the binding signal was 3520 fluorescence intensity (a.u.).

As to “GTAACAGAGTTTGCTGATTGTAAATTTGGTGGCGTGGCATCGGAGTCACCTAGTGCAG”, the binding signal is 4480 fluorescence intensity (a.u.).

“TCAGTTTCTTCAAGACCGTGACACATGCACTCCTTGACATCGGAGTCACCTAGTGCAG”: the binding signal is 4020 fluorescence intensity (a.u.).

As to “GGCTCTGACCTGTGCCTCGTCACCCACCTCGCCCGCCGCCCGGAGTCACCTAGTGCAG”, the binding signal is 13700 fluorescence intensity (a.u.).

For the sequence “CATTCAACGCTCGCGTGCGTGCAGTGCCGTGTGTGGACCGCGGAGTCACCTAGTGCAG”, the binding signal is 54900 fluorescence intensity (a.u.).

Regarding “TTGTGACTTGATTTATCATCAAATGTTCTTTAAACATGACCGGAGTCACCTAGTGCAG”, the binding signal is 3540 fluorescence intensity (a.u.).

On to “TTAAGCCGCTTGATATGATGACTGGTAGCTCACTGGATCACGGAGTCACCTAGTGCAG”, for which the binding signal is 4620 fluorescence intensity (a.u.).

In the case of “AATCATCCGCCCCAGGCCCCAGCCACGTCGTCCAGATCGCCGGAGTCACCTAGTGCAG”, the binding signal is 6410 fluorescence intensity (a.u.).

With “TAGTCCTTCCACCACACGTATGCTACCTTATCAGATCCGACGGAGTCACCTAGTGCAG”, the binding signal was 5090 fluorescence intensity (a.u.).

For “GGCTCTTTCACGTAGGACGAGGACATGACATCCTATTAACCGGAGTCACCTAGTGCAG”, the binding signal was 3560 fluorescence intensity (a.u.).

On to “TGTCTGGGGCAAGGTGCGGAGTCACCCATGGTGGCCGGGCCGGAGTCACCTAGTGCAG”, for which the binding signal is 4320 fluorescence intensity (a.u.).

Turning to “TCTGCAACAAAATCCAATGCGGACTCAGATTTTCGCCGATCGGAGTCACCTAGTGCAG”, the binding signal is 3160 fluorescence intensity (a.u.).

Take “CCGGATAAGTCGTGCGTAACTGATCCGGACTCCACGCCGTCGGAGTCACCTAGTGCAG”: the binding signal is 3900 fluorescence intensity (a.u.).

“ACCTTTGCTCTGGTTTGCTCAATGCTTGTAGAGATTCTGACGGAGTCACCTAGTGCAG”: the binding signal is 19400 fluorescence intensity (a.u.).

“AAAGCATGGGTACTCAGCTAGCTTGCTAGTATCGTGTAAACGGAGTCACCTAGTGCAG”: the binding signal was 3220 fluorescence intensity (a.u.).

Consider “AGAAGAAGTAGATGAAGAAGGTGAGGTGGCCATTCATATTCGGAGTCACCTAGTGCAG”, for which the binding signal was 4360 fluorescence intensity (a.u.).

For the sequence “ATATATGGTATTATGCGCAAACGGTAACACGTATGTCTTCCGGAGTCACCTAGTGCAG”, the binding signal was 3400 fluorescence intensity (a.u.).

As for “CAAATGGCACTATAGTGCATGGCATGTGATGACCTCAGCACGGAGTCACCTAGTGCAG”, the binding signal was 23600 fluorescence intensity (a.u.).

Turning to “GCCTGCTTACTTTCTGCCACCTTTATCTTGCCTAAACAGGCGGAGTCACCTAGTGCAG”, the binding signal is 3780 fluorescence intensity (a.u.).

As to “AAGGGAAGACATGTGGGGCCCACGTGGGCCCCACCATTTTCGGAGTCACCTAGTGCAG”, the binding signal is 4210 fluorescence intensity (a.u.).

On to “TCCTCGATCTCCCTCGCACCCGTCATCACCCTCGAATGGCCGGAGTCACCTAGTGCAG”, for which the binding signal is 4240 fluorescence intensity (a.u.).

For the sequence “CGGACACGGCCTCGTCAGGGTTCTTGCTAGTTCTTGTAGTCGGAGTCACCTAGTGCAG”, the binding signal is 3150 fluorescence intensity (a.u.).

Turning to “ACTGGGCCGATGCGGAGCCAACGCCGACGCAGCCGCCAGCCGGAGTCACCTAGTGCAG”, the binding signal was 3170 fluorescence intensity (a.u.).

In the case of “AAGAGAAAATTTGTTTACTGACCATGACTCCTCTCTCTGACGGAGTCACCTAGTGCAG”, the binding signal is 3420 fluorescence intensity (a.u.).

With “ACATCATTTACCTGTACAAAACATCTCAATTATGCATTGTCGGAGTCACCTAGTGCAG”, the binding signal was 3520 fluorescence intensity (a.u.).

“CGAAGCGAGGGGCGAGCACGTCGACGAGCTTCCCCTTCCCCGGAGTCACCTAGTGCAG”: the binding signal is 4140 fluorescence intensity (a.u.).

For the sequence “CGCTTTTGTGTTTAGTTTAGCGGTGACGTCTTGCGTTTGGCGGAGTCACCTAGTGCAG”, the binding signal was 5950 fluorescence intensity (a.u.).

In the case of “GCTGCGGCTGCTGTTGCTGCTTGGACTCCACCTCGGCACCCGGAGTCACCTAGTGCAG”, the binding signal is 3940 fluorescence intensity (a.u.).

On to “CACATCACATACTGAATGTAAGACGTGTCTCGAGTATCCGCGGAGTCACCTAGTGCAG”, for which the binding signal is 3160 fluorescence intensity (a.u.).

Consider “CAGGAGGCAGGGGTGATCTTTCAGCGGTTAAATCGGGTGACGGAGTCACCTAGTGCAG”, for which the binding signal was 5240 fluorescence intensity (a.u.).

As for “TGACTCTGAGCTGCATGATTTACACGCACACGCGGAGGCTCGGAGTCACCTAGTGCAG”, the binding signal is 4110 fluorescence intensity (a.u.).

Consider “AACAATTATCCACAAATGGACAGACATCATCATCGGTCACCGGAGTCACCTAGTGCAG”, for which the binding signal is 3470 fluorescence intensity (a.u.).

The record behind these values is PMC7819943, “Rice protein-binding microarrays: a tool to detect cis-acting elements near promoter regions in rice”.
